The values that follow come from article PMC8583706.

Amino acid sequences for entries named in this document (tags omitted). Residues count along the entry.
UniProt P35869, residues 11-848: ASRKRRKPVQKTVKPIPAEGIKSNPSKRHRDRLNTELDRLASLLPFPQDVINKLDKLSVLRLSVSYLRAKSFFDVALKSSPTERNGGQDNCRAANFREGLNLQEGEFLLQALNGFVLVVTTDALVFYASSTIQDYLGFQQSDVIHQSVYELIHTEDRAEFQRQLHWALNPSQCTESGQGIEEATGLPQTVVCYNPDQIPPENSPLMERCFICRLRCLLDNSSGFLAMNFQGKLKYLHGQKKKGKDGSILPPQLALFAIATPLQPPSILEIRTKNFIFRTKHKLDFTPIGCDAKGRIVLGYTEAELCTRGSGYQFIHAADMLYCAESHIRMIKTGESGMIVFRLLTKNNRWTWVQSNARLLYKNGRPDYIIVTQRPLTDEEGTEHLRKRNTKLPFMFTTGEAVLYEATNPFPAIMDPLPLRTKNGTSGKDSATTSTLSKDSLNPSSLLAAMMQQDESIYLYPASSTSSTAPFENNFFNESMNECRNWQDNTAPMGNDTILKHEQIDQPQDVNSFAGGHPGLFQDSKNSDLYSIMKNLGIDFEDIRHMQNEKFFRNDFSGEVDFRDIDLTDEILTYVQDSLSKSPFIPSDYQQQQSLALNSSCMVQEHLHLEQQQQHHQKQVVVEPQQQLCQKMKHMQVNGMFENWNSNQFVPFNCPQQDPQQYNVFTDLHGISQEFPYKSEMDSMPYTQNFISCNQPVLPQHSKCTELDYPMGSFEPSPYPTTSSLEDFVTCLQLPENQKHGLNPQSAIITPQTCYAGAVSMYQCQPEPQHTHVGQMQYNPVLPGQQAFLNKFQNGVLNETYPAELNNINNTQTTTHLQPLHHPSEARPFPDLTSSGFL
UniProt P35222: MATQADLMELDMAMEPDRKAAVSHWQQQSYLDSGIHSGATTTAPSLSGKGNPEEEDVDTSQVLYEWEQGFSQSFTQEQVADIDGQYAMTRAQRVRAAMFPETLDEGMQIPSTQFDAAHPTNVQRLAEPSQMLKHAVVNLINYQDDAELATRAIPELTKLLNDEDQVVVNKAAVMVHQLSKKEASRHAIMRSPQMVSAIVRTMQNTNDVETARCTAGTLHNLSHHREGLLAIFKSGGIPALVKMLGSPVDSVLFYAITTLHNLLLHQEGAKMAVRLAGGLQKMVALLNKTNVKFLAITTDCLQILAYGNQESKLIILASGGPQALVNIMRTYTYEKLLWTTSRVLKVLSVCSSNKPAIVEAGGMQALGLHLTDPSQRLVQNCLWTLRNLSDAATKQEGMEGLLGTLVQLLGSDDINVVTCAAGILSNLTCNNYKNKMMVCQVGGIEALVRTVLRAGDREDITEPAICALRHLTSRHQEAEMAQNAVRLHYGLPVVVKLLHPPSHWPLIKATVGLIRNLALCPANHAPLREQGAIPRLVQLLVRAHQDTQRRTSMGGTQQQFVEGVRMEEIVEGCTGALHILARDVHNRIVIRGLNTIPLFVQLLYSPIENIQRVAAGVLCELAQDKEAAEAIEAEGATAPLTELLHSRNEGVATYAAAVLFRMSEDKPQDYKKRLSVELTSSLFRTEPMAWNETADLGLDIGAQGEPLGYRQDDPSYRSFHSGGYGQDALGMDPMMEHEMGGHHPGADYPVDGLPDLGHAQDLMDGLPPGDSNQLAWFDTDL

Results are given in words; binding and its absence hold for the method and conditions named. Binding seen in cells or lysates may run through a third protein. Some results given as binding are weak or reduced against the parent protein; the word gives no strength.

The target of the assay is Aryl hydrocarbon receptor (human (endogenous in HuH-7)) (UniProt P35869). The assay is described as follows: co-IP; lysates (RIPA) of shCtrl and shAhR HuH-7 cells treated with IFN-γ (40 ng/mL) or KYN (100 μM) for 8 h; pre-cleaned with protein G beads; protein G beads coupled with anti-AhR or IgG, 4 °C, 4 h; immunoblot for β-catenin. For orientation: In western blotting, separated proteins are transferred to a membrane and probed.

β-catenin (from UniProt P35222 1-781): the binding result is on record as “binds”.
